# Laboratory results as given in PubChem BioAssay (NCATS).
# The chains behind the UniProt entries cited, without tags or fusion partners. Where a name states a change or a piece, a line headed by the entry shows the natural chain unless it says otherwise.
# UniProt P21964: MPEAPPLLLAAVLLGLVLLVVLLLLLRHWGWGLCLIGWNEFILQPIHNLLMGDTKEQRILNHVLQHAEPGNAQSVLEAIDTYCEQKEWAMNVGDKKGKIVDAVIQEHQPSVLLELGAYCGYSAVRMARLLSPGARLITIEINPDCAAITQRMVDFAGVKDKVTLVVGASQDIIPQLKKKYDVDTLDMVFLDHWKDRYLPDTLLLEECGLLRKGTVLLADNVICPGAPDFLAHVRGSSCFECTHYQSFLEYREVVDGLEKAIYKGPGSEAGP
# UniProt P11086: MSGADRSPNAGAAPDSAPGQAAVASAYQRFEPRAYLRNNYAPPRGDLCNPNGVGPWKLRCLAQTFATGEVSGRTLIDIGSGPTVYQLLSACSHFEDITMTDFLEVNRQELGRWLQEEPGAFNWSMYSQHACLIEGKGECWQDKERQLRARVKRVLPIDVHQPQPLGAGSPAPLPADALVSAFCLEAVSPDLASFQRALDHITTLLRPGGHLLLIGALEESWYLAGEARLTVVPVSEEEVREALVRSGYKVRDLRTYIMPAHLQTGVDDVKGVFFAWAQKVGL
# “And” between values parts separate entries of the source, which are not always exact repeats. Identical values can stand only once. The list shows a part of the results. The main result of the screen is listed elsewhere. These columns were measured beside it and carry no call. For part of these data: Compounds called inactive in the main read-out are mostly missing here. Words in brackets tell the shape of the fitted curve; partial curves, single points and poor fits give uncertain potencies.
# Key:
# [1] = qHTS Assay for Inhibitors of PDE-IV (AID 607); conditions: HEK293 ACTOne CNG channel cells, membrane potential fluorescence; measured here: parental cell counter-screen
# In short: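 ACTOne HEK293 cells carry a modified cAMP-gated CNG channel and express endogenous PDE4; plated 1000 cells/well, compounds up to 22.9 uM final. Membrane-potential dye fluorescence (ex 535/em 590) was read; parental cells received 10 uM forskolin + 100 uM RO 20-1724.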
# [2] = Validation of Assay for Modulators of Lamin A Splicing (AID 1459); conditions: Lamin A splicing dual RFP/GFP fluorescence reporter, ratio
# In short: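 Splicing correction is reported by an EGFP-containing lamin A minigene in stably transfected S3 HeLa cells, while DsRed2 controls for viability and nonspecific signal. Cells are exposed to compounds for 48 hrs before the GFP over RFP ratio is taken.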
# [3] = qHTS Assay for Modulators of Human Peripheral Myelin Protein 22 (PMP22) Expression/Activity (AID 1967); conditions: Cell-based PMP22 reporter, dual-color luciferase ratio
# In short: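 Quantitative HTS in a mouse Schwann cell line expressing dual click beetle luciferases: Pmp22 promoter (green) and control EF-alpha promoter (red). After 24h treatment, corrected green/red signal ratio gave %Activity relative to untreated cells.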
# [4] = qHTS Validation Assay to Find Inhibitors of Chronic Active B-Cell Receptor Signaling (AID 485345); conditions: ABC-DLBCL cells, chronic BCR signaling reporter
# In short: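 Read-out: ratio of filter-corrected green (IkappaBalpha fusion) to red (native) luciferase signal in doxycycline-induced TMD8 cells after 4 h at 37C. Titration spanned 46 uM–3 nM; Data were normalised to basal cells and 10 uM MG-132 wells.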
# [5] = Nrf2 qHTS screen for inhibitors: Validation (AID 493153); conditions: A549 ARE-Fluc reporter, 18-24 h; AC50: CellTiter-Fluor fluorescence read, measured here: cytotoxicity CellTiter-Fluor AC50; viability change: measured here: cytotoxicity max response
# In short: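 A549 cells carrying ARE-firefly luciferase reporter, 5000 cells/well in 5% FBS OPTI-MEM, treated with compound over a concentration series for 18-24 h at 37 C. Luciferase luminescence gave Nrf2 activity; CellTiter-Fluor fluorescence gave viability.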
# [6] = A High-Content qHTS Against Drug Library for the Identification of Small Molecules that Inhibit DYT1 Early Onset Primary Dystonia-Associated Cell Pathology (AID 1645839); conditions: HEK293 Flp-In EGFP-delE TorsinA, punctate imaging, 48 h; measured here: cell count cytotoxicity
# In short: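 In this high-content image screen, delE TorsinA mislocalization in inducible Flp-In 293 cells is scored as %pathology, with cell count serving as the counterscreen. Compound exposure lasts 48 h under tetracycline induction in reduced-serum medium.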
# [7] = qHTS Assay for Lipid Storage Modulators (AID 1519); conditions: Drosophila S3 cells, BODIPY lipid droplet/cell ratio, laser cytometry, cells loaded with oleic acid
# In short: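 Cells seeded at 5,000 per well were treated with compounds over a concentration series and loaded with oleic acid (400 uM, as added). Lipid droplet fluorescence (488 nm excitation, 500-530 nm channel) was read by laser-scanning cytometry and normalized to 20 uM Triacsin C.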
# [8] = qHTS Validation Assay for Iinhibitors of HIV-1 Budding by Blocking the Interaction of PTAP/TSG101 (AID 485342); conditions: TSG101-PTAP binding, fluorescence polarization, 4-point titration; measured here: FITC channel readout
# In short: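 Fluorescence anisotropy measured PTAP-Tsg101 interaction. Final concentrations were 10 uM protein domain and 50 nM labeled peptide, equilibrated 20 min at room temperature.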
# [9] = qHTS drug screen for cell cycle checkpoint inhibitors in PARPi-resistant BRCA-mutant ovarian cancer cell lines. (AID 1963452); conditions: PEO1/OlaR viability, CellTiter-Glo luminescence, 96 h
# In short: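 PEO1, PEO4 and PEO1/OlaR ovarian cancer cells, 600 per well, exposed 96 h at 37C to a dilution series. Viability read by CellTiter-Glo luminescence, normalized to DMSO and empty wells; activity summarized as Z-AUC.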
# [10] = qHTS for identification of novel therapeutic agents for treatment of microphthalmiaassociated transcription factor (MiT) renal cell carcinoma (RCC) (AID 1963991); conditions: TFE3-RCC viability, CellTiter-Glo, 48 h
# In short: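 Three TFE3-fusion RCC cell lines (UOK109, UOK124, UOK145), 500 cells/well, were exposed to the 1912-compound MIPE 4.0 library for 48 hours at 37 C. Viability was read by CellTiter-Glo luminescence, normalised to DMSO (100%) and empty wells (0%), with 11-concentration curve fits.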
# [11] = S16 Schwann cell PMP22 intronic element beta-lactamase assay (AID 624044); conditions: S16 rat Schwann cells, PMP22 element beta-lactamase FRET, 24 h
# In short: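 Rat S16 Schwann cells with beta-Lac driven by a PMP22 intronic element, compound-treated 24 h at 37 °C. LiveBLAzer FRET B/G read: 460 nm normalized to potassium clavulanate vs DMSO; 535 nm FRET as viability; concentration-effect curves classified.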
# [12] = molecular target: Catechol O-methyltransferase (Homo sapiens) (UniProt P21964); test: Confirmatory Screen for Target Class Profiling of Small Molecule Inhibitors of Methyltransferases (AID 1745852); conditions: MTase-Glo luminescence, SAH detection, recombinant enzyme; measured here: COMT inhibition potency
# [13] = molecular target: Phenylethanolamine N-methyltransferase (Homo sapiens) (UniProt P11086); test: as above; conditions: MTase-Glo luminescence, SAH detection, recombinant enzyme; measured here: PNMT inhibition potency
# [14] = measured here: red reporter channel AC50, EF-alpha promoter control reporter in MSC80 mouse Schwann cells
# [15] = measured here: CBR control luciferase (viability counter)
# [16] = measured here: cell count channel max response
# [17] = measured here: lipid channel max response
# [18] = measured here: CBG/CBR ratio read-out
# [19] = measured here: PEO1 parental viability
# [20] = measured here: green reporter channel AC50, mouse Pmp22 promoter in mouse Schwann cells
smiles,measurement,setting,value
Cc1ccc(Cl)c(Nc2ccccc2C(=O)O)c1Cl,AC50,[1],"12.6 µM [rising, partial curve] and 5.01 µM [rising, partial curve]"
same,AC50,[2]; measured here: GFP channel,"35.5 µM [falling, single point]"
same,AC50,[2]; measured here: RFP channel,"20 µM [falling, partial curve]"
same,AC50,[3]; [14],"95.3 µM [falling, single point]"
same,AC50,[4]; [15],"18.4 µM [falling, single point]"
same,viability change,[5],-0.981%
same,AC50,[6],"8.91 µM [falling, partial curve]"
CCC1(O)CC2CN(CCc3c([nH]c4ccccc34)[C@@](C(=O)OC)(c3cc4c(cc3OC)N(C)C3[C@]45CCN4CC=C[C@@](CC)([C@@H](OC(C)=O)[C@]3(O)C(=O)OC)[C@H]45)C2)C1 (stereo partly specified),AC50,[2]; measured here: GFP channel,"0.0708 µM [falling, full curve, poor fit]"
same,AC50,[2]; measured here: RFP channel,"0.0708 µM [falling, full curve, poor fit]"
same,max response,[7]; [16],-15.7%
same,AC50,[7]; measured here: cell number channel AC50,"3.98 µM [falling, full curve, poor fit]"
same,max response,[7]; [17],-14.6%
same,AC50,[4]; [18],"0.82 µM [falling, full curve]"
same,AC50,[4]; [15],"1.46 µM [rising, full curve]"
same,AC50,[5],"0.517 µM [falling, full curve]"
same,viability change,[5],-32.6%
Cc1ccc(C(=O)Nc2ccc(S(=O)(=O)O)c3cc(S(=O)(=O)O)cc(S(=O)(=O)O)c23)cc1NC(=O)c1cccc(NC(=O)Nc2cccc(C(=O)Nc3cc(C(=O)Nc4ccc(S(=O)(=O)O)c5cc(S(=O)(=O)O)cc(S(=O)(=O)O)c45)ccc3C)c2)c1,AC50,[2]; measured here: GFP channel,"2.82 µM [rising, full curve]"
same,AC50,[2]; measured here: RFP channel,"3.98 µM [rising, full curve]"
same,max response,[7]; [16],46.1%
same,max response,[7]; [17],49.1%
same,AC50,[8],"56.2 µM [falling, partial curve]"
same,AC50,[9]; [19],"0.003 µM [rising, full curve, poor fit]"
N#Cc1c(-c2ccccc2)no[n+]1[O-],AC50,[2]; measured here: GFP channel,"35.5 µM [falling, single point]"
same,AC50,[2]; measured here: RFP channel,"20 µM [falling, partial curve]"
same,max response,[7]; [16],51.8%
same,max response,[7]; [17],40.5%
same,AC50,[3]; [20],"26.9 µM [falling, full curve]"
same,AC50,[3]; [14],"30.1 µM [falling, full curve]"
OCCN1CCN(CC/C=C2/c3ccccc3Sc3ccc(C(F)(F)F)cc32)CC1,AC50,[2]; measured here: GFP channel,"15.8 µM [falling, single point]"
same,AC50,[2]; measured here: RFP channel,"14.1 µM [falling, partial curve]"
same,max response,[7]; [16],40%
same,max response,[7]; [17],37.2%
same,AC50,[4]; [18],"23.1 µM [falling, partial curve]"
same,AC50,[4]; [15],"23.1 µM [falling, single point]"
same,AC50,[6],"2.24 µM [falling, full curve, poor fit]"
N[C@@H](Cc1c[nH]c2ccccc12)C(=O)O,AC50,[2]; measured here: GFP channel,"35.5 µM [rising, single point]"
same,AC50,[2]; measured here: RFP channel,"35.5 µM [rising, single point]"
same,AC50,[3]; [14],"84.9 µM [falling, single point]"
CC(=O)O[C@H]1C(=O)[C@@]2(C)C([C@H](OC(=O)c3ccccc3)[C@]3(O)C[C@H](OC(=O)[C@H](O)[C@@H](NC(=O)c4ccccc4)c4ccccc4)C(C)=C1C3(C)C)[C@]1(OC(C)=O)CO[C@@H]1C[C@@H]2O (stereo partly specified),AC50,[2]; measured here: GFP channel,"3.98 µM [falling, full curve, poor fit]"
same,AC50,[2]; measured here: RFP channel,"0.0355 µM [falling, full curve]"
same,AC50,[3]; [20],"0.0675 µM [falling, full curve, poor fit]"
same,AC50,[3]; [14],"0.0478 µM [falling, full curve]"
same,AC50,[5],"2.31 µM [falling, partial curve]"
same,viability change,[5],-35.4%
same,AC50,[9]; [19],"0.0078 µM [falling, full curve]"
same,AC50,[9]; measured here: PEO4 viability,"0.0087 µM [falling, full curve]"
same,AC50,[10]; measured here: UOK124 cell viability,"0.00833 µM [falling, full curve]"
same,AC50,[10]; measured here: UOK145 cell viability,"0.0187 µM [falling, full curve]"
COCC(=O)O[C@]1(CCN(C)CCCc2nc3ccccc3[nH]2)CCc2cc(F)ccc2[C@@H]1C(C)C,AC50,[2]; measured here: GFP channel,"22.4 µM [falling, partial curve]"
same,AC50,[2]; measured here: RFP channel,"25.1 µM [falling, single point]"
same,AC50,[3]; [20],"21.3 µM [falling, full curve]"
same,AC50,[3]; [14],"19 µM [falling, full curve, poor fit]"
same,AC50,[4]; [18],"18.4 µM [falling, partial curve]"
same,AC50,[4]; [15],"29.1 µM [falling, single point]"
same,AC50,[5],"32.6 µM [falling, partial curve, poor fit]"
same,viability change,[5],-21.9%
same,AC50,[11]; measured here: 460 nm blue channel,"25.1 µM [falling, partial curve]"
same,AC50,[11]; measured here: 530 nm viability channel,"28.2 µM [rising, single point]"
same,AC50,[6],"6.31 µM [falling, partial curve, poor fit]"
O=C(c1cc(O)c(O)c([N+](=O)[O-])c1)c1ccccc1F,AC50,[2]; measured here: GFP channel,"35.5 µM [falling, single point]"
same,AC50,[2]; measured here: RFP channel,"35.5 µM [falling, single point]"
same,AC50,[3]; [14],"95.3 µM [falling, single point]"
same,AC50,[5],"16.4 µM [falling, single point]"
same,viability change,[5],-30.2%
same,IC50,[12],"0.0217 µM [falling, full curve]"
same,IC50,[13],"24.3 µM [falling, partial curve, poor fit]"
